Laboratory results: PubChem BioAssay AID1259308 (NCATS, 2017)
The whole screen tested about 59,000 reagents; below is a part drawn at random. In the full data, about 1,510 (2.6%) are marked active. 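Calls use total luciferase alone and ignore viability, so some active siRNAs may act by altering cell number.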 Entries without a mark were called inactive. Reagents against one gene are numbered here. Not all columns of the deposit are shown.

- Screen: 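Knock-downs that increase output of a recombinant reporter protein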 (primary screen)
- Cells: human HEK293 embryonic kidney cells stably expressing firefly luciferase (HEK-CMV-Luc2-Hygro)
- Reagent: single siRNA against human genes, 0.8 pmol siRNA per well
- Duration: 72 h
- Read-out: 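Luciferase light (ONE-Glo) measured on one replicate plate set and viability (CellTiter-Glo) on the other, scaled to a negative control siRNA, with robust z-scores and luciferase per cell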
- Reading the numbers: total luciferase, z-score and total luciferase, % of control: higher = more reporter protein produced; luciferase per cell, z-score: higher = more reporter output per viable cell
- Call rule: 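Active when the median/MAD z-score for overall luciferase is greater than 3; a gene was taken forward for validation with new siRNAs if at least two of its three siRNAs passed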
- Calls: active = raised luciferase; inactive = no rise

| target gene | reagent | total luciferase, z-score | total luciferase, % of control | luciferase per cell, z-score |
| --- | --- | --- | --- | --- |
| AGA (aspartylglucosaminidase) | 1 | 0.18 | 85.5 | 0.0653 |
| AGA (aspartylglucosaminidase) | 2 | -0.6 | 69.9 | -1.12 |
| AGA (aspartylglucosaminidase) | 3 | -0.442 | 73.1 | -1.22 |
| LINGO2 (leucine rich repeat and Ig domain containing 2) | 1 | -1.64 | 49.3 | -1.85 |
| LINGO2 (leucine rich repeat and Ig domain containing 2) | 2 | -0.323 | 75.5 | -0.215 |
| LINGO2 (leucine rich repeat and Ig domain containing 2) | 3 | 0.813 | 98.1 | 1.82 |
| CCDC71L (coiled-coil domain containing 71 like) | 1 | 0.254 | 86.9 | 1.44 |
| CCDC71L (coiled-coil domain containing 71 like) | 2 | 0.0802 | 83.5 | 0.489 |
| CCDC71L (coiled-coil domain containing 71 like) | 3 | 0.394 | 89.7 | 0.89 |
| FGFBP3 (fibroblast growth factor binding protein 3) | 1 | -1.47 | 52.7 | 0.806 |
| FGFBP3 (fibroblast growth factor binding protein 3) | 2 | -0.788 | 66.2 | -0.348 |
| FGFBP3 (fibroblast growth factor binding protein 3) | 3 | 4.27 (active) | 167 | 3.14 |
| MAP1LC3B (microtubule associated protein 1 light chain 3 beta) | 1 | -0.575 | 70.4 | -1.25 |
| MAP1LC3B (microtubule associated protein 1 light chain 3 beta) | 2 | -0.505 | 71.8 | -0.802 |
| MAP1LC3B (microtubule associated protein 1 light chain 3 beta) | 3 | -0.513 | 71.7 | -1.14 |
| FAM185BP (family with sequence similarity 185 member B, pseudogene) | 1 | 0.107 | 84 | 0.234 |
| FAM185BP (family with sequence similarity 185 member B, pseudogene) | 2 | 1.63 | 114 | 2.08 |
| FAM185BP (family with sequence similarity 185 member B, pseudogene) | 3 | 1.51 | 112 | 1.2 |
| IL36RN (interleukin 36 receptor antagonist) | 1 | -1.56 | 50.9 | -1.91 |
| IL36RN (interleukin 36 receptor antagonist) | 2 | -1.33 | 55.4 | -1.29 |
| IL36RN (interleukin 36 receptor antagonist) | 3 | -1.46 | 52.8 | -1.58 |
| CRKL (CRK like proto-oncogene, adaptor protein) | 1 | 0.846 | 98.7 | 0.249 |
| CRKL (CRK like proto-oncogene, adaptor protein) | 2 | 0.159 | 85.1 | 0.378 |
| CRKL (CRK like proto-oncogene, adaptor protein) | 3 | -0.246 | 77 | -0.218 |
| ZSCAN16 (zinc finger and SCAN domain containing 16) | 1 | -1.04 | 61.2 | -1.3 |
| ZSCAN16 (zinc finger and SCAN domain containing 16) | 2 | 0.493 | 91.7 | -0.0691 |
| ZSCAN16 (zinc finger and SCAN domain containing 16) | 3 | -0.789 | 66.2 | -0.695 |
| BAGE (B melanoma antigen) | 1 | 0.916 | 100 | 1.15 |
| BAGE (B melanoma antigen) | 2 | -1.79 | 46.3 | -1.96 |
| BAGE (B melanoma antigen) | 3 | 1.33 | 108 | 2.15 |

Single entries from the entries so far:
ZSCAN16 (zinc finger and SCAN domain containing 16) #1, total luciferase, % of control → 61.2
Result for CRKL (CRK like proto-oncogene, adaptor protein) #3 under “luciferase per cell, z-score”: -0.218
FGFBP3 (fibroblast growth factor binding protein 3) #2, luciferase per cell, z-score: -0.348
IL36RN (interleukin 36 receptor antagonist) #2, luciferase per cell, z-score = -1.29
Value for IL36RN (interleukin 36 receptor antagonist) #3 under “total luciferase, % of control”: 52.8

Additional results:
| target gene | reagent | total luciferase, z-score | total luciferase, % of control | luciferase per cell, z-score |
| --- | --- | --- | --- | --- |
| ELMO2 (engulfment and cell motility 2) | 1 | -0.411 | 73.7 | -0.607 |
| ELMO2 (engulfment and cell motility 2) | 2 | 0.132 | 84.5 | -0.587 |
| ELMO2 (engulfment and cell motility 2) | 3 | 1.51 | 112 | 0.133 |
| APOC3 (apolipoprotein C3) | 1 | -0.154 | 78.8 | -0.799 |
| APOC3 (apolipoprotein C3) | 2 | -0.0691 | 80.5 | -1.07 |
| APOC3 (apolipoprotein C3) | 3 | 0.162 | 85.1 | 0.217 |
| PTK7 (protein tyrosine kinase 7 (inactive)) | 1 | 0.451 | 90.9 | 0.559 |
| PTK7 (protein tyrosine kinase 7 (inactive)) | 2 | 1.17 | 105 | 0.605 |
| PTK7 (protein tyrosine kinase 7 (inactive)) | 3 | 4.27 (active) | 167 | 3.19 |
| MR1 (major histocompatibility complex, class I-related) | 1 | -1.28 | 56.4 | -0.41 |
| MR1 (major histocompatibility complex, class I-related) | 2 | -0.915 | 63.7 | -0.906 |
| MR1 (major histocompatibility complex, class I-related) | 3 | 1.09 | 104 | 1.04 |
| PHF7 (PHD finger protein 7) | 1 | -1.26 | 56.8 | -0.619 |
| PHF7 (PHD finger protein 7) | 2 | -0.411 | 73.7 | 0.384 |
| PHF7 (PHD finger protein 7) | 3 | 0.715 | 96.1 | 0.12 |
| MGRN1 (mahogunin ring finger 1) | 1 | 4.64 (active) | 174 | 4.24 |
| MGRN1 (mahogunin ring finger 1) | 2 | 3.87 (active) | 159 | 1.7 |
| MGRN1 (mahogunin ring finger 1) | 3 | -0.881 | 64.4 | -0.989 |
| RPP40 (ribonuclease P/MRP subunit p40) | 1 | -0.302 | 75.9 | -0.393 |
| RPP40 (ribonuclease P/MRP subunit p40) | 2 | 3.8 (active) | 158 | 2.36 |
| RPP40 (ribonuclease P/MRP subunit p40) | 3 | -1.08 | 60.4 | -0.94 |
| CSNK1G1 (casein kinase 1 gamma 1) | 1 | 0.119 | 84.2 | 0.531 |
| CSNK1G1 (casein kinase 1 gamma 1) | 2 | 0.0185 | 82.3 | 0.256 |
| CSNK1G1 (casein kinase 1 gamma 1) | 3 | -0.114 | 79.6 | 0.619 |
| SUPV3L1 (Suv3 like RNA helicase) | 1 | -0.386 | 74.2 | 0.265 |
| SUPV3L1 (Suv3 like RNA helicase) | 2 | 0.106 | 84 | -0.229 |
| SUPV3L1 (Suv3 like RNA helicase) | 3 | -1.15 | 58.9 | -1.56 |
